Data from article doi:10.1101/2025.11.10.686860.
No constants are given. Whether binding was seen depends on the method and setting. In cells and extracts the contact can be indirect. Some entries that bind do so weakly or less than the wild type. For some of these results: Sequences can lack the tags named with a protein.

By UniProt entry, the sequences of proteins in these tests, tags left out.
UniProt P49770: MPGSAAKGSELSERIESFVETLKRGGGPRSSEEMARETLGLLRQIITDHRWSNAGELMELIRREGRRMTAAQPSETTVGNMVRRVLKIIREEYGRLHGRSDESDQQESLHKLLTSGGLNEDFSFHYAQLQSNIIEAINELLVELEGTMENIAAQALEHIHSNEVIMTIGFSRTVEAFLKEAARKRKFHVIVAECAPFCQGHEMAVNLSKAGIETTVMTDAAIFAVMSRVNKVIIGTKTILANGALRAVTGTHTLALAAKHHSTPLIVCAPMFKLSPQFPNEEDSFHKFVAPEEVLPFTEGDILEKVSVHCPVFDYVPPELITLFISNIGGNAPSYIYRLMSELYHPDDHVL
UniProt Q9NR50: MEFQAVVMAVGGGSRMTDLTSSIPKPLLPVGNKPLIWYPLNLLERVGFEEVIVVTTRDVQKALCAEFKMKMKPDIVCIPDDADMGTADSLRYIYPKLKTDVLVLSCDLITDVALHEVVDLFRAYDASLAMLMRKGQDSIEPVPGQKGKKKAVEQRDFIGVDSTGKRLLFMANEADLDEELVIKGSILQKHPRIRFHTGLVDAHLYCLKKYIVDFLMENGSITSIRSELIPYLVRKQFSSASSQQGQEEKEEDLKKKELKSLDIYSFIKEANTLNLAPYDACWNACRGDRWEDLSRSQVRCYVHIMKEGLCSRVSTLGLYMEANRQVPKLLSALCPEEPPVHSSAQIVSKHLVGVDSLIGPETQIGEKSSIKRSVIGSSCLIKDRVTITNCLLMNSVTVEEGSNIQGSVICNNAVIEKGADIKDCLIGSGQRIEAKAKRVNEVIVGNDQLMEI

Columns and labels:
MYC-eIF2Bα (human) = biological target: T1, MYC-eIF2Bα (human) (UniProt Q14232); assay: co-IP
T1 sequence: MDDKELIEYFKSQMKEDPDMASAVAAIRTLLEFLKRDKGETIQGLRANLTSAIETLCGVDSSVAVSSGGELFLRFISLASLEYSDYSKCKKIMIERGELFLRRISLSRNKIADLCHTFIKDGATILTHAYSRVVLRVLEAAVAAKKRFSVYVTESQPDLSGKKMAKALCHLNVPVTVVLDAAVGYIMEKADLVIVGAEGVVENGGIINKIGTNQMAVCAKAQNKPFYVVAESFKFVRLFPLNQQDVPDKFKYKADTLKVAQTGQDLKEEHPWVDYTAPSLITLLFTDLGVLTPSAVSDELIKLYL

FLAG-KRAS 4B Q61R = FLAG-KRAS 4B Q61R (UniProt P01116); assay: co-IP
FLAG-KRAS 4B G12A = FLAG-KRAS 4B G12A (UniProt P01116); assay: co-IP
FLAG-KRAS 4B S17N = FLAG-KRAS 4B S17N (UniProt P01116); assay: co-IP
FLAG-KRAS 4B G12D = FLAG-KRAS 4B G12D (UniProt P01116); assay: co-IP
FLAG-KRAS 4B G12C = FLAG-KRAS 4B G12C (UniProt P01116); assay: co-IP
[1] = biological target: KRAS G12C (endogenous, H358 cells) (human (endogenous in H358)) (UniProt P01116); assay: pull-down

| Substance | binding (MYC-eIF2Bα (human)) | binding (FLAG-KRAS 4B Q61R) | binding (FLAG-KRAS 4B G12A) | binding (FLAG-KRAS 4B S17N) | binding (FLAG-KRAS 4B G12D) | binding (FLAG-KRAS 4B G12C) | binding [1] |
| --- | --- | --- | --- | --- | --- | --- | --- |
| HA-SOS1 (from UniProt Q07889 1-1333) | binds |  |  |  |  |  |  |
| MYC-eIF2Bβ (from UniProt P49770 1-351) |  | binds | binds | no binding | binds | binds |  |
| MYC-eIF2Bγ (from UniProt Q9NR50 1-452) |  | binds | binds | no binding | binds | binds |  |
| eIF2Bβ (endogenous) (from UniProt P49770 1-351) |  |  |  |  |  |  | binds |
| eIF2Bγ (endogenous) (from UniProt Q9NR50 1-452) |  |  |  |  |  |  | binds |
